Measured values published in patent CN114920842A.
Results are given in words; binding and its absence hold for the method and conditions named. Some results given as binding are weak or reduced against the parent protein; the word gives no strength.

Molecular target: T1, 重组人PLVAP/PV-1蛋白 (human) (UniProt Q9BX97)
T1 sequence (looked up): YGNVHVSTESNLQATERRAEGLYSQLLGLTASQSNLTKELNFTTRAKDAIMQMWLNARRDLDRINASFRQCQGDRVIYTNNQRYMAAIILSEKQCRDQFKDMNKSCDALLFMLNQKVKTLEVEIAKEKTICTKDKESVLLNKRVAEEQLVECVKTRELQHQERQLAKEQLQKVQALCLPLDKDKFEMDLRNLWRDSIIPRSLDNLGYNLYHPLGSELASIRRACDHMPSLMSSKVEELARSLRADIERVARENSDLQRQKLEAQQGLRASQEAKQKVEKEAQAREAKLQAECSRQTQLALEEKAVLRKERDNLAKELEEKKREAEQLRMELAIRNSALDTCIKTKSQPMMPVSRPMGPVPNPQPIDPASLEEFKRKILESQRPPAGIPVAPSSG
Test: SPR, Biacore T200, full IgG1 antibodies

B1: HLPV-P02 (antibody, IgG1, V domains shown, not shown: a dimerising Fc or GST)
VH: QVQLVQSGAEVKKPGASVKVSCKASGYVFTDYYMYWVRQAPGQGLEWIGEINPTTGDVNFNEMFKSRVTMTVDTSTSTAYMELSSLRSEDTAVYYCTSIFYWGQGTLVTVSS
VL: DIVMTQSPSSLSASVGDRVTITCKASQDIKYQLSWYQQKPGKAPKTLIYYSTDLADGVPSRFSGSGSGQEFTLTISSLQPEDFATYYCVQHDDRPFTFGQGTKLEIK
With B1 the binding was “binds”.

B2: HLPV-P03 (antibody, IgG1, V domains shown, not shown: a dimerising Fc or GST)
VH: QVQLVQSGAEVKKPGASVKVSCKASGYTFEDYYMYWVRQAPGQGLEWIGEVNPTQGDVNFNEMFKSRVTMTVDTSTSTAYMELSSLRSEDTAVYYCTSIFYWGQGTLVTVSS
VL: DIVMTQSPSSLSASVGDRVTITCKASQDIKYQLSWYQQKPGKAPKTLIYYATFLADGVPSRFSGSGSGQEFTLTISSLQPEDFATYYCVQHDDRPFTFGQGTKLEIK
For B2, the binding was “binds”.

B3: HLPV-P04 (antibody, IgG1, V domains shown, not shown: a dimerising Fc or GST)
VH: QVQLVQSGAEVKKPGASVKVSCKASGYTFRDYYMYWVRQAPGQGLEWIGEINPTTGDVNFNEMFKSRVTMTVDTSTSTAYMELSSLRSEDTAVYYCTSIFYWGQGTLVTVSS
VL: DIVMTQSPSSLSASVGDRVTITCKASQDIKYQLSWYQQKPGKAPKTLIYYATSLADGVPSRFSGSGSGQEFTLTISSLQPEDFATYYCVQHDDRPFTFGQGTKLEIK
In the case of B3, the binding is reported as “binds”.

B4: HLPV-P05 (antibody, IgG1, V domains shown, not shown: a dimerising Fc or GST)
VH: QVQLVQSGAEVKKPGASVKVSCKASGYTFTDYYMYWVRQAPGQGLEWIGEINPTQGDVNFNEMFKSRVTMTVDTSTSTAYMELSSLRSEDTAVYYCTSIFYWGQGTLVTVSS
VL: DIVMTQSPSSLSASVGDRVTITCKASQDIKYQLTWYQQKPGKAPKTLIYYATDLADGVPSRFSGSGSGQEFTLTISSLQPEDFATYYCVQHDNRPFTFGQGTKLEIK
In the case of B4, the binding is reported as “binds”.

B5: HLPV-P06 (antibody, IgG1, V domains shown, not shown: a dimerising Fc or GST)
VH: QVQLVQSGAEVKKPGASVKVSCKASGYTFTAYYMYWVRQAPGQGLEWIGEINPTSGDVNFNEMFKSRVTMTVDTSTSTAYMELSSLRSEDTAVYYCTSIFYWGQGTLVTVSS
VL: DIVMTQSPSSLSASVGDRVTITCKASQDIKYQLSWYQQKPGKAPKTLIYYATFLADGVPSRFSGSGSGQEFTLTISSLQPEDFATYYCVQHDDRPFTFGQGTKLEIK
B5 was tested, and the binding was “binds”.

B6: HLPV-P07 (antibody, IgG1, V domains shown, not shown: a dimerising Fc or GST)
VH: QVQLVQSGAEVKKPGASVKVSCKASGYTFEDYYMYWVRQAPGQGLEWIGEINPTQGDVRFNEMFKSRVTMTVDTSTSTAYMELSSLRSEDTAVYYCTSIFYWGQGTLVTVSS
VL: DIVMTQSPSSLSASVGDRVTITCKASQDIKYQLSWYQQKPGKAPKTLIYYATYLADGVPSRFSGSGSGQEFTLTISSLQPEDFATYYCVQHDDRPFTFGQGTKLEIK
In the case of B6, the binding is reported as “binds”.

B7: HLPV-P08 (antibody, IgG1, V domains shown, not shown: a dimerising Fc or GST)
VH: QVQLVQSGAEVKKPGASVKVSCKASGYTFTDYYMYWVRQAPGQGLEWIGEINPTQGDVNFNEMFKSRVTMTVDTSTSTAYMELSSLRSEDTAVYYCTTIFYWGQGTLVTVSS
VL: DIVMTQSPSSLSASVGDRVTITCKASQDIKYQLTWYQQKPGKAPKTLIYYATDLADGVPSRFSGSGSGQEFTLTISSLQPEDFATYYCVSHDDRPFTFGQGTKLEIK
For B7, the binding was “binds”.

B8: HLPV-P09 (antibody, IgG1, V domains shown, not shown: a dimerising Fc or GST)
VH: QVQLVQSGAEVKKPGASVKVSCKASGYTFTDYYMYWVRQAPGQGLEWIGEINPTQGDVNFNEMFKSRVTMTVDTSTSTAYMELSSLRSEDTAVYYCTTIFYWGQGTLVTVSS
VL: DIVMTQSPSSLSASVGDRVTITCKASQDIGYQLSWYQQKPGKAPKTLIYYATDLADGVPSRFSGSGSGQEFTLTISSLQPEDFATYYCVQHYDRPFTFGQGTKLEIK
B8 was tested, and the binding was “binds”.

B9: HLPV-P10 (antibody, IgG1, V domains shown, not shown: a dimerising Fc or GST)
VH: QVQLVQSGAEVKKPGASVKVSCKASGYTFTDYYMYWVRQAPGQGLEWIGEINPTQGDVNFNEMFKSRVTMTVDTSTSTAYMELSSLRSEDTAVYYCTSIFYWGQGTLVTVSS
VL: DIVMTQSPSSLSASVGDRVTITCKASQDIKYQLTWYQQKPGKAPKTLIYYATDLADGVPSRFSGSGSGQEFTLTISSLQPEDFATYYCVQHSDRPFTFGQGTKLEIK
B9 was tested, and the binding was “binds”.

B10: HLPV-P11 (antibody, IgG1, V domains shown, not shown: a dimerising Fc or GST)
VH: QVQLVQSGAEVKKPGASVKVSCKASGYTFTDYYMYWVRQAPGQGLEWIGEINPTQGDVNFNEMFKSRVTMTVDTSTSTAYMELSSLRSEDTAVYYCTTIFYWGQGTLVTVSS
VL: DIVMTQSPSSLSASVGDRVTITCKASQDIKYQLSWYQQKPGKAPKTLIYYATDLADGVPSRFSGSGSGQEFTLTISSLQPEDFATYYCVQHDDRPFSFGQGTKLEIK
With B10 the binding was “binds”.

B11: HLPV-P12 (antibody, IgG1, V domains shown, not shown: a dimerising Fc or GST)
VH: QVQLVQSGAEVKKPGASVKVSCKASGYTFTDYYMYWVRQAPGQGLEWIGEINPSQGDVNFNEMFKSRVTMTVDTSTSTAYMELSSLRSEDTAVYYCTSIFYWGQGTLVTVSS
VL: DIVMTQSPSSLSASVGDRVTITCKASQDIKYQLSWYQQKPGKAPKTLIYYATDRADGVPSRFSGSGSGQEFTLTISSLQPEDFATYYCVQHDDRPFTFGQGTKLEIK
With B11 the binding was “binds”.

B12: HLPV-P13 (antibody, IgG1, V domains shown, not shown: a dimerising Fc or GST)
VH: QVQLVQSGAEVKKPGASVKVSCKASGYVFTDYYMYWVRQAPGQGLEWIGEINPTSGDVNFNEMFKSRVTMTVDTSTSTAYMELSSLRSEDTAVYYCTSIFYWGQGTLVTVSS
VL: DIVMTQSPSSLSASVGDRVTITCKASQDIKYQLSWYQQKPGKAPKTLIYYAGDLADGVPSRFSGSGSGQEFTLTISSLQPEDFATYYCVQHDDRPFTFGQGTKLEIK
In the case of B12, the binding is reported as “binds”.

B13: HLPV-P14 (antibody, IgG1, V domains shown, not shown: a dimerising Fc or GST)
VH: QVQLVQSGAEVKKPGASVKVSCKASGYTFTNYYMYWVRQAPGQGLEWIGEINPTSGDVNFNEMFKSRVTMTVDTSTSTAYMELSSLRSEDTAVYYCTSIFYWGQGTLVTVSS
VL: DIVMTQSPSSLSASVGDRVTITCKASQDIKYQLSWYQQKPGKAPKTLIYYAGDLADGVPSRFSGSGSGQEFTLTISSLQPEDFATYYCVQHDDRPFTFGQGTKLEIK
For B13, the binding was “binds”.
